According to PMC10516865:
For at least one entry, the source does not settle the construct or the ends of the probe. Results from cells or extracts need not show a direct contact. No signal at the amounts used counts as a negative.

System: RNA polymerase II (phospho-Ser5 CTD form, detected by immunoblot) (Danio rerio (zebrafish), 5 dpf larvae)
Experiment: pull-down (immunoblot)
Conditions: RNA folded in 10 mM Tris pH 7, 0.1 M KCl, 10 mM MgCl2 (1x), binding to 3 mg larval extract in RIP buffer (25 mM Tris pH 7.4, 150 mM KCl, 0.5 mM DTT, 0.5% NP-40), protein in an extract, label: 3' biotin
[1] = no statistically significant interaction

Row | Sequence | binding result (similar efficiency to terc) | binding result [1]
1 | CAAGAGUUCGGCUCUGC [zebrafish T1000 aptamer (P6.1 fork)] | binds | 
2 | GAAGGUUUGCGGACCUCAAACACUGAUCCUGCAAAUAC [zebrafish CR7 aptamer] |  | no binding
3 | CACAGGUUUGGCUGUUUGUACGCGGACAGUUUGACUGCCGCCAAGAGUUCGGCUCUGCUGCACAUUCGGCAGGUCUGUG [zebrafish T800 aptamer (full CR4/CR5 domain)] | binds | 
4 | CAAGAAUUCGGCUCUGC [zebrafish T1000mut aptamer (G194A)] |  | no binding
